Data as given in publication PMC5630290.
These are yes or no findings as the source states them, for the method shown.

Experiments:
[1] = target: reverse sequence control peptide of NH2htau 26-44; assay: thioflavin T fluorescence; 20 µM peptide in 10 mM phosphate buffer pH 7.4, 100 mM NaCl, 60 µM ThT, 37 °C, without and with TLBE LUV 200 µM; followed up to 48 h; fibril formation; both purified
[2] = target: reverse sequence control peptide of NH2htau 26-44; assay: dynamic light scattering; peptide at nominal 2.5 mg/ml in PBS pH 7.4, centrifuged 10 min at 10 000g and filtered; number-weighted hydrodynamic radius, followed over 12 h; both purified

B1: reverse sequence control peptide of NH2htau 26-44 (peptide)
peptide: KLGADTDGEQDQHMTYGGQ
Which results are given for B1?
binding [1]: no binding (tested: 20 µM); binding [2]: no binding (tested: 2.5 mg/ml)
